Experimental findings from the supplement of paper PMC8166895 are described below.

Structures can show the parent of a compound that is named as a salt. The list shows a part of the results. Most values lie at the level of the controls, where differences are scatter.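 Melting temperature was read by differential scanning fluorimetry in a single-replicate pilot screen of a library of approved drugs and clinical or known-target compounds. Compounds raising the melting point by at least 2 °C were the top stabilizing hits, and negative shifts mean destabilization.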 Where a SMILES comes first, the peptide text is derived from it. Bridges are numbered along the chain shown (N, C = ends). [ ]: non-standard residue; d: D form. The star is where a group is joined. Ileψ(thiazoline)Cys = CC[C@H](C)[C@H](N)C1=N[C@H](C(=O)*)CS1; dOrn = NCCC[C@@H](N)C(=O)O

The subject of the assay is SARS-CoV-2 main protease (Mpro, nsp5). In words: thermal shift ΔTm of Mpro relative to plate average Tm; higher = stronger thermal stabilization of Mpro (binding). The conditions noted are these: 10 µM; protein concentration 1 µM.
Take `CC(=O)NCCCS(=O)(=O)O` [Acamprosate calcium]: the “thermal shift ΔTm of Mpro” value is 0.191 °C.
With `N#Cc1cnc(Nc2cc(NC[C@H]3CNCCO3)c(C(F)(F)F)cn2)cn1`, the “thermal shift ΔTm of Mpro” value came to 0.0586 °C.
With `O=C(O)c1cc(/N=N/c2ccc(O)c(C(=O)O)c2)ccc1O` [Olsalazine Sodium], the “thermal shift ΔTm of Mpro” value amounted to 0.435 °C.
`O=C(Nc1ccccc1-c1cn2c(CN3CCNCC3)csc2n1)c1cnc2ccccc2n1`: the “thermal shift ΔTm of Mpro” value amounted to 0.159 °C.
In the case of `CCCC(CCC)C(=O)Nc1ccn([C@@H]2O[C@H](CO)[C@@H](O)C2(F)F)c(=O)n1`, the “thermal shift ΔTm of Mpro” value was found to be 0.0845 °C.
Under `OC(CNCC(O)C1CCc2cc(F)ccc2O1)C1CCc2cc(F)ccc2O1` (centres undefined) [Nebivolol] stands -0.239 °C; under `CN(CC(=O)N(Cc1ccc(C2CCCCC2)cc1)c1ccc(C(=O)O)cc1)S(=O)(=O)c1c(F)c(F)c(F)c(F)c1F`, -0.0756 °C; under `O=c1cc(N2CCOCC2)nc2c3ccccc3ccn12` [Compound 401], -0.0204 °C.
As for `CC[C@@H](C(N)=O)N1CCCC1=O` [Levetiracetam], the “thermal shift ΔTm of Mpro” value was found to be 0.505 °C.
Under `CC(=O)NS(=O)(=O)c1ccc(NC(=O)c2ccccc2C(=O)O)cc1` [Phthalylsulfacetamide] stands 0.191 °C; under `N#Cc1cccc(-c2c[nH]c3ncnc(N4CCOCC4)c23)c1`, -0.0289 °C.
Consider `CC[C@H](C)[C@H](N)C1=N[C@H](C(=O)N[C@@H](CC(C)C)C(=O)N[C@H](CCC(=O)O)C(=O)N[C@H](C(=O)N[C@H]2CCCCNC(=O)[C@H](CC(N)=O)NC(=O)[C@@H](CC(=O)O)NC(=O)[C@H](Cc3cnc[nH]3)NC(=O)[C@@H](Cc3ccccc3)NC(=O)[C@H]([C@@H](C)CC)NC(=O)[C@@H](CCCN)NC2=O)[C@@H](C)CC)CS1` [Bacitracin] ({Ileψ(thiazoline)Cys}-L[dE]IK[dOrn]I[dF]H[dD]N; lactam 4-C), for which the “thermal shift ΔTm of Mpro” value was found to be 0.0585 °C.
In the case of `O=C(CCc1ccc(O)cc1)c1c(O)cc(O)cc1O` [Phloretin], the “thermal shift ΔTm of Mpro” value amounted to 0.949 °C.
The figure for `Cc1cn(CCN2CCN(c3ccccc3-c3cc(C#N)cc(C(=O)NCCCN4CCCC4)c3)CC2)c2ccccc12` is 0.256 °C; for `CN1CCN(CCCN2c3ccccc3Sc3ccc(C(F)(F)F)cc32)CC1` [Trifluoperazine 2HCl] it is -0.126 °C; for `CNCc1ccc(-c2cc(-c3nc(-c4ccc(S(=O)(=O)C(C)C)cc4)cnc3N)on2)cc1` it is 0.143 °C.
For `COc1ccc(OC)c(C(O)CNC(=O)CN)c1` (centres undefined) [Midodrine hydrochloride], the “thermal shift ΔTm of Mpro” value was determined as 0.421 °C.
Consider `CC(S)C(=O)NCC(=O)O` (centres undefined) [Tiopronin], for which the “thermal shift ΔTm of Mpro” value amounted to 0.0568 °C.
As to `O=C(O)CCCc1ccc(N(CCCl)CCCl)cc1` [Chloroambucil], the “thermal shift ΔTm of Mpro” value was -0.0638 °C.
Turning to `NCC(CS(=O)(=O)O)c1ccc(Cl)cc1` (centres undefined) [Saclofen], the “thermal shift ΔTm of Mpro” value came to 0.0491 °C.
Under `C=CC(=O)Nc1ccc(CN(C(=O)Nc2c(Cl)c(OC)cc(OC)c2Cl)c2cc(Nc3ccc(N4CCN(C)CC4)cc3)ncn2)cc1` stands 0.355 °C.
For the compound `CNC[C@H](O)c1ccc(O)c(O)c1` [Epinephrine Bitartrate], the “thermal shift ΔTm of Mpro” value is 0.00903 °C.
Under `CNC[C@H](O)c1ccc(O)c(O)c1` [Epinephrine HCl] stands 0.0253 °C; under `O=C(NCc1ccccc1)c1csc(Nc2ccncn2)n1` [Thiazovivin], 0.278 °C.
In the case of `C=CC(=O)Nc1cc2c(Nc3ccc(F)c(Cl)c3)ncnc2cc1OCCCN1CCOCC1` [Canertinib], the “thermal shift ΔTm of Mpro” value is 0.196 °C.
In the case of `O=C(Nc1ccccc1C(=O)NC1CCCCNC1=O)c1cc2ccccc2s1` (centres undefined), the “thermal shift ΔTm of Mpro” value is -0.205 °C.
In the case of `O=C1N[C@](c2ccc(N3CCOCC3)cc2)(c2ccsc2)CC(O)=C1Sc1ccccc1Cl`, the “thermal shift ΔTm of Mpro” value was 0.0877 °C.
Turning to `CCc1cc(Nc2nccc(-c3c(-c4ccc(OC)c(C(=O)Nc5c(F)cccc5F)c4)nc4ccccn34)n2)c(OC)cc1N1CCC(N2CCN(S(C)(=O)=O)CC2)CC1`, the “thermal shift ΔTm of Mpro” value was found to be 0.163 °C.
For `CC(C)OC(=O)N1CCC(Oc2ncnc3c2cnn3-c2ccc(S(C)(=O)=O)cc2F)CC1`, the “thermal shift ΔTm of Mpro” value was 0.323 °C.
As to `Nc1ccn([C@H]2CC[C@@H](CO)O2)c(=O)n1` [Zalcitabine], the “thermal shift ΔTm of Mpro” value was -0.176 °C.
For the compound `Cc1ccc(C2Nc3ccccc3-n3c(-c4ccccc4)c4c(=O)n(C)c(=O)n(C)c4c32)o1` (centres undefined), the “thermal shift ΔTm of Mpro” value is -0.0344 °C.
Consider `COc1cccc(-c2cc(=O)c3ccccc3o2)c1N`, for which the “thermal shift ΔTm of Mpro” value amounted to 0.117 °C.
On to `C=CCNC(N)=S` [Allylthiourea], for which the “thermal shift ΔTm of Mpro” value came to 0.153 °C.
On to `CNC(=O)c1cccc(-c2ccc3c(N4CCOC[C@@H]4C)nc(N4CCOC[C@@H]4C)nc3n2)c1`, for which the “thermal shift ΔTm of Mpro” value was found to be 0.0138 °C.
Under `CN(C)CCOC(C)(c1ccccc1)c1ccccn1` (centres undefined) [Doxylamine Succinate] stands -0.171 °C; under `c1cnoc1` [Isoxazole], -0.0697 °C.
The figure for `Oc1c(I)cc(Cl)c2cccnc12` [Clioquinol] is 0.0227 °C; for `C[C@@H](O)[C@H]1C(=O)N2C(C(=O)O)=C(S[C@@H]3CN[C@H](CNS(N)(=O)=O)C3)[C@H](C)[C@H]12` [Doripenem Hydrate] it is 0.595 °C; for `COc1cc2nccc(Oc3ccc(NC(=O)Nc4cc(C)on4)c(Cl)c3)c2cc1OC` [Tivozanib (AV-951)] it is -0.143 °C.
